In article PMC7415812:
No constants are given. Whether binding was seen depends on the method and setting. In cells and extracts the contact can be indirect. Some results given as binding are weak or reduced against the parent protein; the word gives no strength.

Amino acid sequences for entries named in this document (tags omitted). Residues count along the entry.
UniProt O00206, residues 24-839: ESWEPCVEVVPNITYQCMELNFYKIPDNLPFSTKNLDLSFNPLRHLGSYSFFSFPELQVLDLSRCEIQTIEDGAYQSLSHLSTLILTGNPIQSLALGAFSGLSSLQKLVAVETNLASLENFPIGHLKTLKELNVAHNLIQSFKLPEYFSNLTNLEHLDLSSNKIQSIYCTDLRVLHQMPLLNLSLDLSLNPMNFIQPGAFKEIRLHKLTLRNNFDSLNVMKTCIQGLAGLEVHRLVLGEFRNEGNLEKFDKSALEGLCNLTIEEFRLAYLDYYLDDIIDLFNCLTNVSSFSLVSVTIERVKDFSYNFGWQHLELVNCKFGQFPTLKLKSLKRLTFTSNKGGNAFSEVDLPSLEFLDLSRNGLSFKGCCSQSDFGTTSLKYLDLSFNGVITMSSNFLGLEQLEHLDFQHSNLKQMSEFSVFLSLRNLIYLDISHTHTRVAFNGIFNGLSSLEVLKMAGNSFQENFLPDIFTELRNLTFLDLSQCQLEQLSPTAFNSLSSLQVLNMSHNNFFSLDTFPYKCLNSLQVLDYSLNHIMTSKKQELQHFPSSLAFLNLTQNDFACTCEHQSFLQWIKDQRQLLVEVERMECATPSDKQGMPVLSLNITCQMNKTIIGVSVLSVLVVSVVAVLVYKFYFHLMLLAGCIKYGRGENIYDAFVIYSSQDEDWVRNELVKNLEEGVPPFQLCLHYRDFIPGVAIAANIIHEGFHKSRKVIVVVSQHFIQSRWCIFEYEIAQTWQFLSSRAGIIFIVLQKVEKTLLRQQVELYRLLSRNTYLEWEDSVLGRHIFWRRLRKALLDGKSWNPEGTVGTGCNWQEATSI
UniProt Q03135: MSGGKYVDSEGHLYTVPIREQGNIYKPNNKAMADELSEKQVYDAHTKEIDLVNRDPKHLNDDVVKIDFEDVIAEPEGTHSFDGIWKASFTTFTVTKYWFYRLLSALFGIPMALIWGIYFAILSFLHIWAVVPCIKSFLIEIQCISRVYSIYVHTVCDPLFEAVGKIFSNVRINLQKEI

How the values were obtained:
[1] = target: toll-like receptor-4 (human (endogenous in OVCAR-3)) (UniProt O00206); assay: proximity ligation; Duolink PLA in fixed OVCAR-3 cells, primary antibodies 1:200 overnight at 4 °C, confocal microscopy; cells untreated or treated with Selene (Selene-L 10 µM, Selene-H 15 µM)
[2] = target: toll-like receptor-4 (human (endogenous in OVCAR-3)) (UniProt O00206); assay: co-IP; antibody against the target protein or IgG (negative control) on protein A/G beads; OVCAR-3 cells lysed in RIPA buffer; beads with lysate overnight at 4 °C; washed with PBS with 0.1% NP-40; eluate analysed by Western blot
[3] = target: caveolin 1 (human (endogenous in OVCAR-3)) (UniProt Q03135); assay: as above

binding [1] | binding [2] | binding [3] | Substance
binds | binds |  | caveolin 1 (from UniProt Q03135 1-178)
 |  | binds | toll-like receptor-4 (from UniProt O00206 24-839)
